Test results taken from patent US11028174 (LEPU BIOPHARMA, dated 2021).
No constants are given. Whether binding was seen depends on the method and setting. Some entries that bind do so weakly or less than the wild type.

B1: 89C10H8 chimeric mAb (antibody, V domains shown)
VH: EVQLVESGGGLVQPGRSLTLSCVASGFTFSNYWMTWIRQAPGKGLEWVASITNTGSSTFYPDSVKGRFTISRDNTRSTLFLQINSLRSEDTATYYCTRDTTIAPFDYWGQGVMVTVSS
VL: DIQMTQSPSFLSASVGDRVTITCKASQNLNEYLNWYQQKLGEAPKRLIYKTNTLQAGIPSRFSGSGSGIDYTLTISSLQPEDVATYFCSQYNSGNTFGAGTKLELK
notes: also called 89C10H8-chimera
B2: 67F3G7 chimeric mAb (antibody, V domains shown)
VH: QVKLLQSGAALVKPGASVKMSCKASGYIFTDFWVSWVKQSHEKSLEWIGEIYPNSGVSRYNEKFKGRATMTVDKSTSTAYLELSRLTSEDSAIYYCTKYFGYTYWFGYWGQGTLVTVSS
VL: DTVLTQSPALAVSLGQRITISCRASKSVSTYMHWYQQRSGLQPKLLIYSASHLESGVPSRFSGSGSGTDFTLTIDPVEADDIANYYCQQSNELPVTFGSGTKLEIK
notes: also called 67F3G7-chimera
B3: 47C6A3 chimeric mAb (antibody, V domains shown)
VH: DVQLQESGPGLVKPSQSLSLTCTVTGYSITSDYAWNWIRQFPGNKLEWMGYIIYSGSTSYNPSLKSRISITRDTSKNQFFLQLNSVTTEDTATYYCARSTMIATNWFAYWGQGTLVTVSA
VL: DIVMTQSHKFMSTSVVDRVSITCKASQDVSLAVAWYQQKPGQSPKLLIYWASTRHTGVPDRFTGSGSGTDFALTISSVQAEDLALYYCQQHYITPWTFGGGTKLEIK
notes: also called 47C6A3-chimera

Target: cynomolgus PD-L1 protein (cynomolgus) (UniProt G7PSE7)
Assay: ELISA, coated cynomolgus PD-L1

| binding | Binder |
| --- | --- |
| binds | B1 |
| binds | B2 |
| binds | B3 |
